Experimental data as given in PubChem BioAssay AID493014 (National Center for Advancing Translational Sciences (NCATS), 2011).
The other results are listed elsewhere or left out. Shown are side measurements of this screen, not its main read-out; they come without a call. Most of these compounds were active or inconclusive in the main read-out, so they are no random draw. The note in brackets gives the kind of curve behind each potency; many fits are weak.

Assay: qHTS Assay to Find Inhibitors of Chronic Active B-Cell Receptor Signaling
Conditions: ABC-DLBCL IkBa-CBG/CBR reporter, luminescence ratio (green luciferase fused to IkBa over red control in TMD8 lymphoma cells), 4 h
How it was run: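 Compounds up to 46 uM were incubated four hours with TMD8 cells whose green CBG68 luciferase is fused to IkappaBalpha; red CBR luminescence normalised the signal, and concentration-effect curves were fitted to fusion, red and ratio data.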

[1] = measured here: CBR red luminescence, cell number
[2] = measured here: IkBa-CBG green luminescence

SMILES | AC50 [1] | AC50 [2]
CC(=O)Nc1sc(N/N=C/c2ccccc2F)nc1-c1ccc(C)cc1 | 12.6 µM [falling, single point] | –
Cc1ccc(N2CCN(S(=O)(=O)c3ccc4c(c3)n(C)c(=O)c(=O)n4C)CC2C)cc1 (stereo not drawn) | 0.82 µM [rising, full curve, poor fit] | –
Cc1ccc(C)c(OCC(=O)O/N=C(\N)c2cccc([N+](=O)[O-])c2)c1 | 1.26 µM [rising, partial curve, poor fit] | –
O=c1[nH]c2cc3c(cc2cc1CN(CC1CCCO1)S(=O)(=O)c1ccc(Cl)cc1)OCCO3 (stereo not drawn) | 23.1 µM [rising, partial curve, poor fit] | –
CCOC(=O)c1c(NC(=O)c2ccccc2Cl)sc2c1CCc1ccccc1-2 | 20.6 µM [falling, partial curve, poor fit] | –
Cc1[nH]c2ccccc2c1C(=O)CSc1ccc(Cl)cc1 | 0.708 µM [rising, full curve, poor fit] | –
O=C(Nc1ccccc1)Nc1ccccc1C(=O)NCCCN1CCOCC1 | 4.47 µM [falling, partial curve] | –
OC1CCCCC1Sc1nc2ccccc2s1 (stereo not drawn) | 2.82 µM [rising, full curve, poor fit] | –
Cc1cc(C)c(NC(=O)c2cc(S(=O)(=O)N3CCCC3)cn2C)c(C)c1 | 35.5 µM [falling, single point] | –
COc1ccc(C2Nc3ccccc3C(=O)N2c2ccc(C)cc2)cc1Cn1nc(C)c([N+](=O)[O-])c1C (stereo not drawn) | 12.6 µM [rising, partial curve] | –
COc1ccc(CNC(=O)c2cc(-c3cc(C)ccc3O)n[nH]2)cc1 | 12.6 µM [falling, partial curve, poor fit] | –
Cc1nn2c(NCCOCCO)c3c(nc2c1-c1ccccc1)CCC3 | 31.6 µM [falling, single point] | –
COc1ccc(C2CC(c3ccccc3)=NN2C(=O)COC(=O)CNC(=O)c2ccccc2)cc1 (stereo not drawn) | 13 µM [rising, partial curve, poor fit] | –
O=C(NCc1ccccc1)c1n[nH]nc1-c1ccccc1O | 4.47 µM [falling, full curve] | –
Cc1cccc(N=C2NN=C(c3c(C)[nH]c4ccccc34)CS2)c1 | – | 23.1 µM [rising, single point]
Cn1c(N)c(S(=O)(=O)N2CCN(c3ccccc3F)CC2)c(=O)n(C)c1=O | 35.5 µM [rising, single point] | –
COc1ccc(/C=C2/SC(=S)N(CCCC(=O)Nc3ccccc3C(=O)O)C2=O)cc1 | 0.316 µM [falling, full curve] | –
CN1CCN(Cc2c(O)ccc3occ(C(=O)c4ccccc4)c23)CC1 | 11.6 µM [falling, partial curve] | –
CCc1ccc(CNC(=O)c2cc3c(C)nc4ccccc4c3o2)cc1 | 29.1 µM [falling, single point] | –
CNc1ccccc1-n1ccc(-c2ccccc2)n1 | 3.66 µM [rising, partial curve, poor fit] | –
CCn1c(SCc2ccc(OC)cc2)nnc1-c1ccncc1 | 23.1 µM [falling, partial curve, poor fit] | –

One compound at a time (already shown). Values in the order: AC50 [1]	AC50 [2]
`Cc1nn2c(NCCOCCO)c3c(nc2c1-c1ccccc1)CCC3` reads 31.6 µM [falling, single point]	–
`COc1ccc(C2Nc3ccccc3C(=O)N2c2ccc(C)cc2)cc1Cn1nc(C)c([N+](=O)[O-])c1C` (stereo not drawn) reads 12.6 µM [rising, partial curve]	–

(continued)

SMILES | AC50 [1] | AC50 [2]
Cc1nc2ncnn2c(C)c1CCC(=O)N1CCc2ccccc21 | 0.0291 µM [rising, full curve, poor fit] | –
COc1ccccc1NC(=O)C(=O)NCC(c1ccco1)N1CCc2ccccc21 (stereo not drawn) | 9.2 µM [falling, partial curve, poor fit] | –
CCOc1ccc(NC(=O)c2cccc(OC(=S)N3CCOCC3)c2)cc1 | 7.08 µM [falling, partial curve] | –
CCCn1c(SCC(=O)NC2CCCCC2)nnc1C1CC1 | 0.1 µM [rising, full curve, poor fit] | –
CC(=O)Nc1cccc(C(=O)/C=C/c2ccc(Br)cc2)c1 | 16.4 µM [falling, partial curve] | –
O=C(COC(=O)c1ccc(N2CCCC2=O)cc1)NCc1ccco1 | 0.0891 µM [falling, full curve, poor fit] | –
COC(=O)c1ccc(NC(=O)c2cnc3scc(C)n3c2=O)cc1 | 3.16 µM [falling, partial curve, poor fit] | –
COc1ccc(S(=O)(=O)NCC(c2ccco2)S(=O)(=O)c2cccs2)cc1OC (stereo not drawn) | 28.2 µM [falling, single point] | –
CC1Cc2ccccc2N1c1ncnc(N)c1[N+](=O)[O-] (stereo not drawn) | 35.5 µM [falling, single point] | 15.8 µM [rising, single point]
C#CCOCCOCCOCCNc1nc(N2CCN(C(=O)CCCCCCCCCCNC(=O)[C@H](CCCN=C(N)N)n3cc(C[C@@H](C)CC)nn3)CC2)nc(N2CCN(C(=O)CCCCCCCCCCNC(=O)[C@@H]([C@H](C)CC)n3cc(CCCCCN)nn3)CC2)n1 | 7.31 µM [falling, partial curve, poor fit] | –
COc1ccc(N(C(=O)c2ccccc2OC)C2C=CS(=O)(=O)C2)c(OC)c1 (stereo not drawn) | 6.51 µM [rising, single point] | –
CN(C)c1cc(-c2ccc(F)cc2)oc(=O)c1Cl | 0.794 µM [rising, full curve, poor fit] | –
CCOC(=O)c1ccc(COC(=O)CNS(=O)(=O)c2ccccc2)cc1 | 6.31 µM [falling, single point] | –
CCOC(=O)CN1C(=O)S/C(=C/c2cccc([N+](=O)[O-])c2O)C1=O | 1.58 µM [rising, full curve] | –
Cc1ccc(N/N=C/c2cccnc2)cc1 | 20.6 µM [rising, partial curve] | –
COc1ccc(N(CC(=O)N2CCC(Cc3ccccc3)CC2)S(C)(=O)=O)cc1 | 0.708 µM [falling, partial curve, poor fit] | –
Clc1ccc(CSc2nnc(Cn3cnc4ccccc43)o2)cc1 | 18.4 µM [falling, single point] | –
COC(=O)/C(C#N)=C/c1ccc(OC(=O)c2ccccn2)cc1 | 9.2 µM [falling, partial curve] | –
CCNC(=O)CC1C(=O)N(c2cccc(OC)c2)C(=O)N1CCOC (stereo not drawn) | 29.1 µM [rising, single point] | –
S=c1nc2ccccc2c2nc(-c3ccccc3Cl)[nH]n12 | – | 0.501 µM [falling, partial curve, poor fit]
Cc1ccnc(NC(=O)CSc2ccc3c(c2)OCCO3)c1 | 18.4 µM [falling, single point] | –

SMILES | AC50 [1] | AC50 [2]
O=[N+]([O-])c1cccc(-n2cc3ccc([N+](=O)[O-])cc3n2)c1 | 0.164 µM [rising, full curve, poor fit] | –
COC(=O)C1(C)Cc2cc(OC(C)=O)c(OC(C)=O)cc2N1 (stereo not drawn) | 11.2 µM [falling, partial curve, poor fit] | –
CC(OC(=O)c1cccc(-n2cnnn2)c1)C(=O)N(C)c1ccccc1 (stereo not drawn) | 3.98 µM [rising, single point] | –
CCN(CC(=O)N(CC(C)C)c1c(N)n(CC(C)C)c(=O)[nH]c1=O)Cc1nc2ccccc2c(=O)[nH]1 | 35.5 µM [rising, single point] | –
O=C(Nc1cccc(NC(=O)c2ccccc2Cl)c1)c1ccc([N+](=O)[O-])o1 | 22.4 µM [falling, single point] | –
O=C1NCCCC2c3cc(O)c4ccccc4c3OC12N1CCCCC1 (stereo not drawn) | 35.5 µM [falling, single point] | –
CCOC(=O)c1c(C)oc2cc(Cl)c(O)c(CN(C)C)c12 | 12.6 µM [rising, partial curve] | –
Cc1cc(NC(=O)NC(=O)c2ccccc2F)no1 | 15.8 µM [falling, partial curve, poor fit] | –
CN(CC(=O)Nc1ccc(Cl)c(C(F)(F)F)c1)C(=O)/C=C/c1cccs1 | 20.6 µM [rising, single point] | –
CC1(C)Cc2ccccc2C(C(Cc2ccccc2)C(N)=O)=N1 (stereo not drawn) | 0.631 µM [rising, partial curve, poor fit] | –
CCS(=O)(=O)c1ccc(-c2cccc(NC(=O)c3ccco3)c2)nn1 | 6.51 µM [falling, single point] | –
CC1(C)Cc2c(sc3nc(-c4ccccc4)oc(=O)c23)CO1 | 0.291 µM [falling, full curve] | –
COc1ccc(NC(=O)C/C(C)=N/NC(=O)c2ccco2)c([N+](=O)[O-])c1 | 35.5 µM [falling, partial curve, poor fit] | –
O=C(Nc1ccccc1)C1=C[C@H](c2ccc3c(c2)OCO3)C[C@H](OCc2ccc(CO)cc2)O1 | 25.1 µM [falling, single point] | –
NC(=O)c1ccccc1NC(=O)CCc1ccccc1 | 4.47 µM [falling, partial curve] | –
CCN(CC(=O)Nc1ccc(OC)cc1)C(=O)c1cc([N+](=O)[O-])ccc1N1CCOCC1 | 6.51 µM [rising, partial curve, poor fit] | –
N#Cc1cccnc1N1CCN(C(=O)c2cccc3c2C(=O)c2ccc(Cl)cc2S3(=O)=O)CC1 | 6.51 µM [rising, single point] | –
O=C(Nc1nccs1)C1CCN(S(=O)(=O)c2ccc3c(c2)OCCCO3)CC1 | 3.55 µM [falling, partial curve, poor fit] | –
CN1CCN(CC(=O)N2CCn3c4c(c5cc(C6CCCCC6)ccc53)CCCC42)CC1 (stereo not drawn) | 6.51 µM [rising, partial curve, poor fit] | –
N#C/C(=C\c1cccnc1)c1ccc(Br)cc1 | 0.501 µM [rising, full curve, poor fit] | –
